{
  "sequences": {"note": "By UniProt entry, the sequences of proteins in these tests, tags left out.", "UniProt Q08211": "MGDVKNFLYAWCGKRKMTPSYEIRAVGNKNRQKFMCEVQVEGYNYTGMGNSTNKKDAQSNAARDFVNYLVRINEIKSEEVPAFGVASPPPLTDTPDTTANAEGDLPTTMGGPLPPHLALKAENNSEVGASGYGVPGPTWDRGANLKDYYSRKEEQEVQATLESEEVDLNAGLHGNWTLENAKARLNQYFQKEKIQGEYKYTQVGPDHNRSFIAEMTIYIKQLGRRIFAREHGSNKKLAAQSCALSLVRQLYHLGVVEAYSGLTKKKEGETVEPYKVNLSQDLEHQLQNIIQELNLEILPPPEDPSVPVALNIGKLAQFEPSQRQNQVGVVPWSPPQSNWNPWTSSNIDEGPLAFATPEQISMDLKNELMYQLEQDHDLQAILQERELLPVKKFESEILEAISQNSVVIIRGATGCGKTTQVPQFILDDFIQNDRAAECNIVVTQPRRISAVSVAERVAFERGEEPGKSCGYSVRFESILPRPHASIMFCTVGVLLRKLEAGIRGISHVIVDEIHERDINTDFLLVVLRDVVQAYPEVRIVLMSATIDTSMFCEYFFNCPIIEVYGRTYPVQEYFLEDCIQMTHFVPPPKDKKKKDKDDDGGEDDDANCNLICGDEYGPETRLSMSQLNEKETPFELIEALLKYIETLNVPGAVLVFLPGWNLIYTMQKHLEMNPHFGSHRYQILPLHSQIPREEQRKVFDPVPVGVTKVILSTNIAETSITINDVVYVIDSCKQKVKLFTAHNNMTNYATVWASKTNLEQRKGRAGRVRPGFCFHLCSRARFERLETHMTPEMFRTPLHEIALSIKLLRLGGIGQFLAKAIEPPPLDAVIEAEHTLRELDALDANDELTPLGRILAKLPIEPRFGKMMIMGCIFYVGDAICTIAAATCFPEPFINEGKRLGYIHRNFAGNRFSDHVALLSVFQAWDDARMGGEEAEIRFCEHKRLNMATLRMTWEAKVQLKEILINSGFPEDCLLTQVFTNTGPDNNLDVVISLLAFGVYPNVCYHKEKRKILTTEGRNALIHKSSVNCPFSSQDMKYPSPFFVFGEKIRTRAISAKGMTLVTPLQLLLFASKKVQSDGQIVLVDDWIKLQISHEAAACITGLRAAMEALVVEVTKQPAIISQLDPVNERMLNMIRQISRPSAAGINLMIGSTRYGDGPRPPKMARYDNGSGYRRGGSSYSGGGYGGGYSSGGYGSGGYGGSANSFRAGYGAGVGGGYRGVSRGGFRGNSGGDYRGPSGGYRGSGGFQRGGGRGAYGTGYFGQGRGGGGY"},
  "source": "paper PMC10406855",
  "target": "DHX9 (human (endogenous in BC cell lines)) (UniProt Q08211)",
  "test": "co-IP; whole-cell lysates (200-400 ug protein) of BC cells with 1-2 ug anti-DHX9, anti-RFFL or control IgG overnight, protein A/G agarose beads 1 h at 4 °C, western blotting; endogenous proteins; also in cells with LINC01016 overexpressed or knocked down (Fig. 5K)",
  "note": "These are yes or no findings as the source states them, for the method shown. Binding seen in cells or lysates may run through a third protein. Some results given as binding are weak or reduced against the parent protein; the word gives no strength.",
  "data": [
    {"binder": "RING finger and FYVE-like domain-containing protein 1 (RFFL) (protein, UniProt Q8WZ73 1-363) MWATCCNWFCLDGQPEEVPPPQGARMQAYSNPGYSSFPSPTGLEPSCKSCGAHFANTARKQTCLDCKKNFCMTCSSQVGNGPRLCLLCQRFRATAFQREELMKMKVKDLRDYLSLHDISTEMCREKEELVLLVLGQQPVISQEDRTRASTLSPDFPEQQAFLTQPHSSMVPPTSPNLPSSSAQATSVPPAQVQENQQANGHVSQDQEEPVYLESVARVPAEDETQSIDSEDSFVPGRRASLSDLTDLEDIEGLTVRQLKEILARNFVNYKGCCEKWELMERVTRLYKDQKGLQHLVSGAEDQNGGAVPSGLEENLCKICMDSPIDCVLLECGHMVTCTKCGKRMNECPICRQYVIRAVHVFRS", "values": [
      {"measurement": "binding", "value": "binds"}
    ]}
  ]
}
